The assay concerns the target hematopoietic cell kinase (HCK) (UniProt P08103). The assay can be described thus: co-IP; cells lysed with IP lysis on ice for 30 min; IP antibody incubated with the lysate overnight at 4°C; streptavidin magnetic beads 4 h at 4°C; washed four times; WB; cells and IP antibody not named.

By UniProt entry, the sequences of proteins in these tests, tags left out.
UniProt P08103: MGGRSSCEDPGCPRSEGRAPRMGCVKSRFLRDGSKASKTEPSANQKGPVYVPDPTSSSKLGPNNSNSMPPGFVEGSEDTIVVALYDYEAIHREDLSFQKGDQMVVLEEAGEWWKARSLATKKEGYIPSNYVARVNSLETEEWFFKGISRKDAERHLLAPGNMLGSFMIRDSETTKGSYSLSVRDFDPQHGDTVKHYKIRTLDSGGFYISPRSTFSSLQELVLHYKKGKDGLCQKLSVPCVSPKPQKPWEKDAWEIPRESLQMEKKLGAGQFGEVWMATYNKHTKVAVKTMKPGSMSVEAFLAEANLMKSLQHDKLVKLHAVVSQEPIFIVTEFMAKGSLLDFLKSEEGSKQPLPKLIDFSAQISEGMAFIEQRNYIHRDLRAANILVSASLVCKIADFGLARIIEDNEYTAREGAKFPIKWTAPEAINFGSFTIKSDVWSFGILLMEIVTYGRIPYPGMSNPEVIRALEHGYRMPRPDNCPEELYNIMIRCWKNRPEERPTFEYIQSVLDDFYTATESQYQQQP
UniProt P15105: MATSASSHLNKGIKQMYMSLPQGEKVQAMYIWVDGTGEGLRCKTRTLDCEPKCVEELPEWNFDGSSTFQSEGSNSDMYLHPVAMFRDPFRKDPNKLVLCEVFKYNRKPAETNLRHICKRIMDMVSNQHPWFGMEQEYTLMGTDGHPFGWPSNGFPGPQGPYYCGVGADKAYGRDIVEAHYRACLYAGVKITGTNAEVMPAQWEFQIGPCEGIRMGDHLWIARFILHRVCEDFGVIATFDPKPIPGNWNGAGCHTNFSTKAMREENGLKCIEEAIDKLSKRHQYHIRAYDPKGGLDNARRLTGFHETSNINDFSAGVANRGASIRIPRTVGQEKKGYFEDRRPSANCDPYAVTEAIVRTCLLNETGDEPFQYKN

These are yes or no findings as the source states them, for the method shown. In cells and extracts the contact can be indirect.

Regarding “glutamine synthetase (GS) (from UniProt P15105 1-373) (enzyme)”, the binding result was “no binding”.

Source of the values: PMC12882329.
